Reference: patent US8222244B2, “Staurosporine derivatives as inhibitors of FLT3 receptor tyrosine kinase activity” (Novartis AG, priority 2001, dated 2012)
pIC50: −log10 of the molar value.

Key:
[1] = system: untransformed Ba/F3 cells
Method: (§1) To search for FLT3-targeted compounds, the applicant screened the inhibitory effects of several compounds on two different kinds of assays. • Tyrosine protein kinase assays with purified GST-Flt-3 were carried in a final volume of 30 μL containing 200-1800 ng of enzyme protein. The activity was assayed in the presence or absence of inhibitors, by measuring the incorporation of ^33P from [γ^33P] ATP into appropriate substrates. […] Cell lines expressing two different forms of mutated, activated FLT3 are used: Ba/F3-FLT3-ITD cells expressing a FLT3 mutant with an “Internal Tandem Duplication” (ITD) within the juxtamembrane domain of the receptor. Ba/F3-FLT3-D835Y cells expressing an FLT3 receptor containing a mutation converting […] at position 835 to Tyrosine.
(§2) A cell based assay is utilised to identify inhibitors of mutant FLT3 tyrosine kinase receptors.
(§3) The cell lines used for the initial screening are sublines of Ba/F3 cells that are engineered to express mutant or over-express wild-type (non-mutated) FLT3 following infection with a retrovirus expressing appropriate FLT3 cDNAs. The parent cell line, Ba/F3 is dependent on interleukin-3 for proliferation, and when deprived of IL-3, the cells rapidly cease proliferation and die. The retrovirus expresses FLT3 from the retrovirual LTR and the neo gene from an IRES site.

Ba/F3-FLT3-D835Y cells = experiment: cells; conditions: read-out: IC50, inhibition of proliferation
Method: as §1, §2, §3

Ba/F3-FLT3-ITD cells = experiment: cells
Method: as §1, §2, §3

`CO[C@@H]1[C@H](N(C)C(=O)c2ccccc2)C[C@H]2O[C@]1(C)n1c3ccccc3c3c4c(c5c6ccccc6n2c5c31)C(=O)NC4` [MIDOSTAURIN, N-[(9S,10R,11R,13R)-2,3,10,11,12,13-hexahydro-10-methoxy-9-methyl-1-oxo-9,13-epoxy-1H,9H-diindolo[1,2,3-gh:3′,2′,1′-Im]pyrrolo[3,4-j][1,7]benzodiazonin-11-yl]-N-methylbenzamide] was tested, and the “did not inhibit growth at concentrations of up to” value [1] was greater than 500 nM, the pIC50 (Ba/F3-FLT3-D835Y cells) was greater than 8.00 and the “reversal of growth inhibitory effects by IL-3” value (Ba/F3-FLT3-ITD cells; Ba/F3-FLT3-ITD cells, addition of high concentrations of IL-3) was “could be reversed”. For the same molecule, the pIC50 (Ba/F3-FLT3-ITD cells; Ba/F3 FLT3-ITD, read-out: IC50, inhibition of proliferation) was greater than 8.00.
